In this data set the test system is Aca10 WT (Pseudomonas citronellolis). Briefly: EMSA. Particulars: 2.5 uM Aca10; EMSA: 20 ng dsDNA in 20 mM Tris-HCl pH 8.0, 150 mM NaCl, 60 min on ice; 10% native 0.5x TBE PAGE, SYBR Gold; recombinant protein; protein details: C-terminal His6 (pET21a). (A gel shift assay detects complexes by their altered migration in electrophoresis.)

For at least one entry, the source does not settle the construct or the ends of the probe. A negative result means that nothing was seen under these conditions.

The text below walks through data of paper PMC9410881.

Regarding “ACAAGCGGCACACTGTGCCTATTGCGAATTAGGCACAATGTGCCTAATCTAACG (double strand) [Aca1 IR]”, the binding result was “no binding”.
On to “ATACGCTCATTGAGCGTAT (double strand) [IR2 truncated by one base at both ends (19 bp)]”, for which the binding result is “binds”.
With “CACTGTTCGCAATTGCGAACTAAGATGGAACCAGATTCGAGATTGGCTCGAATCACCTC (double strand) [Aca2 IR]”, the binding result is “no binding”.
